PubChem BioAssay AID1259308 | NCATS | 2017

Assay: 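Genes whose loss raises luciferase production in HEK293 cells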 (primary screen)
Cells: human HEK293 embryonic kidney cells stably expressing firefly luciferase (HEK-CMV-Luc2-Hygro)
Reagent: single siRNA against human genes, 0.8 pmol siRNA per well
Time to read-out: 72 h
Measured: 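Luciferase light (ONE-Glo) measured on one replicate plate set and viability (CellTiter-Glo) on the other, scaled to a negative control siRNA, with robust z-scores and luciferase per cell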
Reading the numbers: total luciferase, z-score and total luciferase, % of control: higher = more reporter protein produced; luciferase per cell, z-score: higher = more reporter output per viable cell; viable cells, % of control: higher = more viable cells
Rule for the call: 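An siRNA counts as active if its total luciferase robust z-score exceeds 3; genes with two or more such siRNAs out of three were retested with fresh siRNAs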
Meaning of the calls: active = raised luciferase; inactive = no rise
Here is a random part of about 59,000 reagents. Of all reagents, about 1,510 (2.6%) are marked active. 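Calls use total luciferase alone and ignore viability, so some active siRNAs may act by altering cell number.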 The numbers tell different reagents against one gene apart. Reagent sequences are not shown.

Gene | siRNA no. | total luciferase, z-score | total luciferase, % of control | luciferase per cell, z-score | viable cells, % of control | Call
SLC6A16 | 1 | 0.416 | 90.2 | 0.12 | 97.6 | inactive
SLC6A16 | 2 | -0.651 | 68.9 | 0.12 | 74.6 | inactive
SLC6A16 | 3 | -0.0496 | 80.9 | -0.331 | 98.6 | inactive
SLC25A21 | 1 | -0.355 | 74.8 | -0.42 | 93.4 | inactive
SLC25A21 | 2 | -1.53 | 51.4 | -0.992 | 74.6 | inactive
SLC25A21 | 3 | 1.98 | 121 | 1.49 | 91.5 | inactive
INTS5 (integrator complex subunit 5) | 1 | 2.81 | 138 | 1.78 | 96.3 | inactive
INTS5 (integrator complex subunit 5) | 2 | 1.59 | 114 | 1.2 | 92.5 | inactive
INTS5 (integrator complex subunit 5) | 3 | 0.502 | 91.9 | 0.608 | 87.5 | inactive
ZFR (zinc finger RNA binding protein) | 1 | 0.24 | 86.7 | 0.943 | 75.5 | inactive
ZFR (zinc finger RNA binding protein) | 2 | -0.00329 | 81.8 | -0.463 | 103 | inactive
ZFR (zinc finger RNA binding protein) | 3 | -0.731 | 67.4 | -0.533 | 86.6 | inactive
TMEM230 (transmembrane protein 230) | 1 | 1.79 | 117 | 1.78 | 82.1 | inactive
TMEM230 (transmembrane protein 230) | 2 | 2.6 | 134 | 2.08 | 86.4 | inactive
TMEM230 (transmembrane protein 230) | 3 | -0.256 | 76.8 | -0.812 | 106 | inactive
ZC2HC1C (zinc finger C2HC-type containing 1C) | 1 | 0.593 | 93.7 | 0.874 | 83.2 | inactive
ZC2HC1C (zinc finger C2HC-type containing 1C) | 2 | -0.045 | 81 | -0.0758 | 92.3 | inactive
ZC2HC1C (zinc finger C2HC-type containing 1C) | 3 | 1.79 | 118 | 2.1 | 75.5 | inactive
LMX1A (LIM homeobox transcription factor 1 alpha) | 1 | 2.02 | 122 | 2.09 | 78.5 | inactive
LMX1A (LIM homeobox transcription factor 1 alpha) | 2 | -0.582 | 70.3 | -0.195 | 82.7 | inactive
LMX1A (LIM homeobox transcription factor 1 alpha) | 3 | 0.4 | 89.9 | -0.128 | 104 | inactive
OR1J4 (olfactory receptor family 1 subfamily J member 4) | 1 | -1.14 | 59.2 | -1.09 | 88.1 | inactive
OR1J4 (olfactory receptor family 1 subfamily J member 4) | 2 | 1.89 | 120 | 1.25 | 96 | inactive
OR1J4 (olfactory receptor family 1 subfamily J member 4) | 3 | -0.0914 | 80.1 | -0.979 | 116 | inactive

An excerpt from above, reduced to “total luciferase, % of control”.
INTS5 (integrator complex subunit 5) #3	91.9
ZFR (zinc finger RNA binding protein) #1	86.7
ZFR (zinc finger RNA binding protein) #2	81.8

Next results:
Gene | siRNA no. | total luciferase, z-score | total luciferase, % of control | luciferase per cell, z-score | viable cells, % of control | Call
C1QTNF9B (C1q and TNF related 9B) | 1 | -1.05 | 61.1 | -0.687 | 81.8 | inactive
C1QTNF9B (C1q and TNF related 9B) | 2 | 0.712 | 96 | 0.564 | 92.5 | inactive
C1QTNF9B (C1q and TNF related 9B) | 3 | -1.67 | 48.7 | -1.32 | 77 | inactive
MAP7D1 (MAP7 domain containing 1) | 1 | 3.26 | 147 | 2.93 | 75.8 | active
MAP7D1 (MAP7 domain containing 1) | 2 | 0.974 | 101 | 0.229 | 107 | inactive
MAP7D1 (MAP7 domain containing 1) | 3 | 0.3 | 87.9 | 0.721 | 81.2 | inactive
GOLGA8EP (golgin A8 family member E, pseudogene) | 1 | -0.504 | 71.9 | -0.43 | 89.9 | inactive
GOLGA8EP (golgin A8 family member E, pseudogene) | 2 | 0.802 | 97.8 | 0.551 | 94.6 | inactive
GOLGA8EP (golgin A8 family member E, pseudogene) | 3 | -0.0338 | 81.2 | 0.584 | 77.8 | inactive
PPP1R15B (protein phosphatase 1 regulatory subunit 15B) | 1 | -2.87 | 24.8 | -3.41 | 67.9 | inactive
PPP1R15B (protein phosphatase 1 regulatory subunit 15B) | 2 | -2.91 | 23.9 | -3.08 | 60.1 | inactive
PPP1R15B (protein phosphatase 1 regulatory subunit 15B) | 3 | -2.15 | 39.1 | -0.828 | 54.3 | inactive
TRIL (TLR4 interactor with leucine rich repeats) | 1 | -0.652 | 68.9 | -0.744 | 93.7 | inactive
TRIL (TLR4 interactor with leucine rich repeats) | 2 | 2.86 | 139 | 2.43 | 81.7 | inactive
TRIL (TLR4 interactor with leucine rich repeats) | 3 | -0.432 | 73.3 | -1.22 | 113 | inactive
